This experiment has as its target glutamate site of NMDA receptors (Rattus norvegicus, UniProt Q00959). Description: NMDA receptor radioligand binding assay.

By UniProt entry, the sequences of proteins in these tests, tags left out. Residues count along the entry.
UniProt Q00959, 23-1464: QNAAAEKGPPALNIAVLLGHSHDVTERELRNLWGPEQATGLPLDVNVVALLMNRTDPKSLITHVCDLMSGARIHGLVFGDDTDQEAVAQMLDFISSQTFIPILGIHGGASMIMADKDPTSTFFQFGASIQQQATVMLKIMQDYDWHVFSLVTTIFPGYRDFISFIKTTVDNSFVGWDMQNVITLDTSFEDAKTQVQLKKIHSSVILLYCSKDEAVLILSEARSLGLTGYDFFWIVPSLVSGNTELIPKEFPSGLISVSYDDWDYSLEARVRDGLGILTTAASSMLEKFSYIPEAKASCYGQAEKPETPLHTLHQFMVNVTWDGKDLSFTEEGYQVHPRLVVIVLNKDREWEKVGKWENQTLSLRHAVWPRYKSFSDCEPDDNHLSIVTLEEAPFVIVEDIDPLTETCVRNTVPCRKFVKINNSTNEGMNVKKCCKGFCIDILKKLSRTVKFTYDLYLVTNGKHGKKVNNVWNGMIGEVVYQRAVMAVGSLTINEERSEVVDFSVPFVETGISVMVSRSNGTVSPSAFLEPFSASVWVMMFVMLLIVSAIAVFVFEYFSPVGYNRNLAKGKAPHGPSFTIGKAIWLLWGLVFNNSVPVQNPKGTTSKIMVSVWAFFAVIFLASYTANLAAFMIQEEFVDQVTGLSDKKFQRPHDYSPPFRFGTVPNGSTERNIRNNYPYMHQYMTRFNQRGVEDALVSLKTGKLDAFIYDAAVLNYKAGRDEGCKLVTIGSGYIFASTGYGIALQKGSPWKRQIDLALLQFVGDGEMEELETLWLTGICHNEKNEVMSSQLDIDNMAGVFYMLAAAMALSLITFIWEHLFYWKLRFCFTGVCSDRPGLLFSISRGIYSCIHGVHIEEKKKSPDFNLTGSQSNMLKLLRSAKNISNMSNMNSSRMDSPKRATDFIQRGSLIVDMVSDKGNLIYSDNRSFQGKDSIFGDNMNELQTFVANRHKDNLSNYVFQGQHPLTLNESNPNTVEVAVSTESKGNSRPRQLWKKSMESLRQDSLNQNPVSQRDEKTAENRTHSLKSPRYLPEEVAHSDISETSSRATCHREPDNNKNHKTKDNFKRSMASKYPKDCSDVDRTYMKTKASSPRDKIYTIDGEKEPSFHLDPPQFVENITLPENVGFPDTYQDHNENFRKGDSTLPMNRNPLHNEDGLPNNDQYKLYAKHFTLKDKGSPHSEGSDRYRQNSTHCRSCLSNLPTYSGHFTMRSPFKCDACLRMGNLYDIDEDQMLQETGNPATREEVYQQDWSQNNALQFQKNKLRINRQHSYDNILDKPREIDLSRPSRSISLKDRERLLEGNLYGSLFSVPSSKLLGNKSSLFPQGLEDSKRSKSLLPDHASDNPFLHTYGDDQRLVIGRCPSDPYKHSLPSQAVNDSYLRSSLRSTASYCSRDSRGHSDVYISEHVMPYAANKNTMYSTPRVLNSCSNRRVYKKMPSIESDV

The structures appear in SMILES notation.

For the compound `Nc1nc2ccc(OC(F)(F)F)cc2s1` [Riluzole, 2-amino-6-[trifluoromethoxy]benzothiazole, reference compound], the “effect in NMDA receptor binding assay at 100 μM” value was “no effect”.

Source of the values: article PMC2635097 (Molecular pharmacology, 2008).
